Our source for the binding values is paper PMC5643561, “Zdhhc13-dependent Drp1 S-palmitoylation impacts brain bioenergetics, anxiety, coordination and motor skills” (Scientific Reports, 2017).

Protein sequences, listed by entry. Tags and fused reporters are not part of them.
UniProt Q8K1M6: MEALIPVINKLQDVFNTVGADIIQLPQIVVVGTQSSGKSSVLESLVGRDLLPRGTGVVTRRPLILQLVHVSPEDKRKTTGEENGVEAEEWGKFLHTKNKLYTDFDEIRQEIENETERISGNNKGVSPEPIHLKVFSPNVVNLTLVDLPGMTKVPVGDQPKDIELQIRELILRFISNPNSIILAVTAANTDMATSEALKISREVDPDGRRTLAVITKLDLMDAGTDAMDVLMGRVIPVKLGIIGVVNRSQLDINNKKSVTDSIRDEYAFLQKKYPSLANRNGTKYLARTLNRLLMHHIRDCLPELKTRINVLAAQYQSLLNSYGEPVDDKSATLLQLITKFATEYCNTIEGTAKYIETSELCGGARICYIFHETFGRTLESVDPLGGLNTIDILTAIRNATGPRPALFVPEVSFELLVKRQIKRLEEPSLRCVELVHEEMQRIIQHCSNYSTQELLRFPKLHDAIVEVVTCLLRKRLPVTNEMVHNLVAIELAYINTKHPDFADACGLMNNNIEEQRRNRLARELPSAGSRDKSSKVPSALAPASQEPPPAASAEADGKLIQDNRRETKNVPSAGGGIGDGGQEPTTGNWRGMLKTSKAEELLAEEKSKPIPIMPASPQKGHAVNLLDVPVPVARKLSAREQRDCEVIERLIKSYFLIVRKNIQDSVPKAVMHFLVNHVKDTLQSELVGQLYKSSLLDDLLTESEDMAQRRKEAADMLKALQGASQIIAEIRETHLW

Experiment [1] has as its target T1, Zdhhc13, endogenous, WT mouse brain (mouse (endogenous in brain)) (UniProt Q9CWU2).
T1 sequence: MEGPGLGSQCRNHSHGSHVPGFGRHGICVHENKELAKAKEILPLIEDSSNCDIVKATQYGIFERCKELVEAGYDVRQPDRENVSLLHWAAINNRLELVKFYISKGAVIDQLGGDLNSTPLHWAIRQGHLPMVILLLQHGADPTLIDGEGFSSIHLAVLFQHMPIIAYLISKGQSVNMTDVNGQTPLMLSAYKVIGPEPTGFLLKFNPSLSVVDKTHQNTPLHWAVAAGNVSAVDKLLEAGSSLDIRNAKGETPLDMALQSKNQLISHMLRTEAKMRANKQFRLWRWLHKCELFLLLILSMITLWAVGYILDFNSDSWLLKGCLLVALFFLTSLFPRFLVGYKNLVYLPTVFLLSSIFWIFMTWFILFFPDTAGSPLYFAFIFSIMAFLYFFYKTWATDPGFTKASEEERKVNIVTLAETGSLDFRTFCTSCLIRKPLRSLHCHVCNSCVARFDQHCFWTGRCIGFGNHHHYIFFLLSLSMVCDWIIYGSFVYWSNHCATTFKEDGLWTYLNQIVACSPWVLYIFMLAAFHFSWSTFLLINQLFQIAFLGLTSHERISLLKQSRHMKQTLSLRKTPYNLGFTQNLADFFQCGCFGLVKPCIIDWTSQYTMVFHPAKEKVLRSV
Nature of the experiment: affinity purification with mass spectrometry; immunoprecipitation with antibodies to Drp1 or Zdhhc13 from whole brains of WT and HOM mice; pellets analysed by mass spectrometry.

For experiment [2], the target named is Drp1, endogenous, mouse brain (mouse (endogenous in brain)) (UniProt Q8K1M6). Described as above.

No constants are given. Whether binding was seen depends on the method and setting. In cells and extracts the contact can be indirect. Here binding means that the protein was enriched with, or labelled near, the bait; the list need not be complete.

B1: mitochondrial glutamate carrier 1 (protein, UniProt Q9D6M3 1-323)
chain: MADKQISLPAKLINGGIAGLIGVTCVFPIDLAKTRLQNQQNGQRMYASMSDCLIKTIRSEGYFGMYRGAAVNLTLVTPEKAIKLAANDFFRHQLSKDGQKLTLPKEMLAGCGAGTCQVIVTTPMEMLKIQLQDAGRIAAQRKILAAQAQLSAQGGAQPSVEAPAPPRPTATQLTRDLLRNHGIAGLYKGLGATLLRDVPFSIVYFPLFANLNQLGRPSSEEKSPFYVSFLAGCVAGSAAAVAVNPCDVVKTRLQSLERGVNEDTYSGFLDCARKIWRHEGPSAFLKGAYCRALVIAPLFGIAQVVYFLGIAESLLGLLQEPQA
Turning to B1, the binding result in experiment [1] and in experiment [2] was “binds” in each case.
